US20150183871A1
No constants are given. Whether binding was seen depends on the method and setting. Some results given as binding are weak or reduced against the parent protein; the word gives no strength.

Assays:
[1] = biological target: fc-coupled human RGM A light chain, fragment 0 (47-168) (human); assay: direct ELISA on hRGMA 47-168/HuIgGFc
[2] = biological target: rat RGM A overexpressed on cells (BAF3 cells) (rat); assay: FACS, figure legend (paragraph 377 says that only 5F9 binds)
[3] = biological target: rat RGM A overexpressed on cells (BAF3 cells) (rat); assay: FACS on BAF3 cells overexpressing rat RGM A (FIG. 1C)
[4] = biological target: rat RGM A overexpressed on cells (BAF3 cells) (rat); assay: FACS on BAF3-ratRGMA stable cell line, anti-rat IgG PE
[5] = biological target: fc-coupled full length human RGM A (47-422) (human); assay: competition ELISA: fc-conjugated full length hRGM A (0.5 µg/ml) binding to coated BMP-2
[6] = biological target: fc-coupled full length human RGM A (47-422) (human); assay: competition ELISA: fc-conjugated full length hRGM A (0.5 µg/ml) binding to coated BMP-4
[7] = biological target: fc-coupled full length human RGM A (47-422) (human); assay: competition ELISA: fc-conjugated full length hRGM A (0.5 µg/ml) binding to coated His-tagged Neogenin extracellular domain
[8] = biological target: fc-coupled full length human RGM A (47-422) (human); assay: competition ELISA: fc-coupled full length hRGM A (0.5 µg/ml) binding to coated BMP-4, detection with biotin anti-human fc and streptavidin-peroxidase
[9] = biological target: fc-coupled full length human RGM A (47-422) (human); assay: competition ELISA: fc-coupled full length hRGM A (0.5 µg/ml) binding to coated BMP-2, detection with biotin anti-human fc and streptavidin-peroxidase
[10] = biological target: fc-coupled human RGM A light chain, fragment 0 (47-168) (human); assay: competition ELISA: fc-coupled hRGM A fragment 0 (47-168, 0.5 µg/ml) binding to coated BMP-4, detection with biotin anti-human fc and streptavidin-peroxidase
[11] = biological target: fc-coupled full length human RGM A (47-422) (human); assay: competition ELISA: fc-coupled full length hRGM A (0.5 µg/ml) binding to coated His-tagged Neogenin extracellular domain, detection with biotin anti-human fc and streptavidin-peroxidase

Measured: binding

B1: rat anti-human RGM A monoclonal antibody 5F9 (antibody, V domains shown)
VH: EVQLVESGGGLVQPGSSLKLSCVASGFTFSNYGMNWIRQAPKKGLEWIGMIYYDSSEKHYADSVKGRFTISRDNSKNTLYLEMNSLRSEDTAIYYCAKGTTPDYWGQGVMVTVSS
VL: DVVLTQTPVSLSVTLGDQASMSCRSSQSLEYSDGYTFLEWFLQKPGQSPQLLIYEVSNRFSGVPDRFIGSGSGTDFTLKISRVEPEDLGVYYCFQATHDPLTFGSGTKLEIKR
binds: all assays above
